One may read the AC50 as the midpoint of the concentration-response curve, whichever way the signal moves.

A short description of this experiment: qHTS Assay to Find Inhibitors of Chronic Active B-Cell Receptor Signaling. The following applies: ABC-DLBCL IkBa-CBG/CBR reporter, luminescence ratio (green luciferase fused to IkBa over red control in TMD8 lymphoma cells), 4 h. Summed up:
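Compounds up to 46 uM were incubated four hours with TMD8 cells whose green CBG68 luciferase is fused to IkappaBalpha; red CBR luminescence normalised the signal, and concentration-effect curves were fitted to fusion, red and ratio data.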
Background: Quantitative high-throughput screening tests each substance at several concentrations.

Where [1] appears, read: measured here: CBR red luminescence, cell number.
The mark [2] stands for this setting: measured here: IkBa-CBG green luminescence.

Some of the results follow. Shown are side measurements of this screen, not its main read-out; they come without a call. The list favours compounds with an active or inconclusive main result. Potencies come from curve fits of mixed quality, noted in brackets.

Consider `COc1cc2c3nnc(-c4ccccc4)c-3cn(Cc3ccccc3F)c2cc1OC`, for which the AC50 under setting [1] is 6.31 µM [rising, single point].
For `O=C(c1ccccc1)c1c[nH]c(C(=O)NCc2cccnc2)c1`, the AC50 under setting [1] was 20 µM [falling, single point].
Same read-out and setting: under `Oc1ccc(Br)cc1/C=N/n1cnc2ccccc21` stands 2.51 µM [rising, partial curve, poor fit]; under `O=C(CC1C(=O)Nc2ccccc2N1CC(=O)N1CCCC1)Nc1ccc(Br)cc1` (stereo not drawn), 20.6 µM [falling, partial curve].
Same read-out and setting: under `Cn1c(=O)c2c(nc(N/N=C3\CCCc4ccccc43)n2Cc2ccc(F)cc2)n(C)c1=O` stands 20.6 µM [falling, partial curve, poor fit].
In the case of `Cc1cc(C)nc(Nc2ccc(C(=O)O)cc2)n1`, the AC50 under setting [1] is 1.64 µM [falling, full curve].
For the compound `CCCCC(=O)Nc1nnc(CCOC)s1`, the AC50 under setting [1] is 35.5 µM [falling, single point].
On the same count and under the same terms, the figure for `CCCCCCS(=O)Cc1ccccc1` (stereo not drawn) is 0.731 µM [rising, full curve, poor fit].
Consider `CN1CCN(C(=O)CCC(=O)c2ccc(F)cc2)CC1`, for which the AC50 under setting [1] is 32.6 µM [rising, single point].
In the case of `c1ccc(C2=Nn3c(nnc3-c3n[nH]c4c3CCC4)SC2)cc1`, under setting [2], the AC50 is 11.2 µM [falling, partial curve].
As to `Cc1c(C(=O)N/N=C/c2cccnc2)sc(N)c1C#N`, under setting [1], the AC50 was 15.8 µM [falling, partial curve].
Same read-out and setting: the figure for `CCN1/C(=C\C(=S)Nc2ccccc2)Sc2ccccc21` is 14.1 µM [falling, partial curve].
The same measure, in the same setting: the figure for `CCOC(=O)C1CCCN(C(=O)c2sc3nc(-c4ccc(F)cc4)cn3c2C)C1` (stereo not drawn) is 4.47 µM [falling, partial curve, poor fit]; for `CCC(Sc1nc2cc(OC)c(OC)cc2c(=O)n1CCc1ccc(S(N)(=O)=O)cc1)C(=O)NCCOC` (stereo not drawn) it is 3.55 µM [rising, single point]; for `Nc1nc(CCl)nc(Nc2ccccc2)n1` it is 3.98 µM [falling, partial curve, poor fit].
On the same count and under the same terms, the figure for `c1cncc(Nc2nc(-c3cccs3)cs2)c1` is 14.6 µM [rising, single point].
In the case of `CCN(CC)S(=O)(=O)c1cc(NC(=O)COC(=O)CCC(=O)c2ccc(F)cc2)ccc1C`, the AC50 under setting [1] was 6.51 µM [rising, single point].
In the case of `Cc1ccc(S(=O)(=O)N2CCOCC2)cc1NC(=O)COC(=O)CSc1ccc(Br)cc1C`, the AC50 under setting [2] was 32.6 µM [rising, partial curve, poor fit].
Regarding `CC1CCCN(C(=O)CCc2ccccc2)C1` (stereo not drawn), under setting [1], the AC50 was 4.11 µM [rising, partial curve, poor fit].
Still for that read-out and setting: the figure for `O=C(O)C1CC=CCC1C(=O)Nc1ccccc1` (stereo not drawn) is 6.51 µM [falling, single point]; for `COc1ccc2cc(CCNC(=O)c3ccc(Br)o3)c(=O)[nH]c2c1` it is 0.00411 µM [rising, full curve, poor fit].
For `O=C(O)CSc1nnc(NC(=O)c2ccc3c(c2)OCO3)s1`, the AC50 under setting [1] is 10 µM [falling, partial curve].
On to `CCOc1cccc(/C=C/c2ccc3cccc(O)c3n2)c1O`, for which the AC50 was 25.1 µM [rising, single point] under setting [1] and 17.8 µM [falling, single point] under setting [2].
As to `Cc1ccc(OCC(=O)Nc2ccc3c(c2)OC(F)(F)O3)c([N+](=O)[O-])n1`, under setting [1], the AC50 was 0.366 µM [rising, full curve, poor fit].
Still for that read-out and setting: under `C/C(=N\O)C(C)(C)Nc1ccccc1F` stands 5.01 µM [rising, partial curve, poor fit]; under `Cc1cc(C)cc(OCC(O)CN2CCN(C(=O)c3ccco3)CC2)c1` (stereo not drawn), 5.62 µM [rising, partial curve, poor fit]; under `O=C(C1Cc2ccccc2CN1C(=O)c1ccccc1)N1CCN(c2ccccc2)CC1` (stereo not drawn), 15.8 µM [falling, single point].
On to `O=C(CSc1ccc(-c2ccccn2)nn1)c1ccccc1`, for which, under setting [1], the AC50 was 35.5 µM [falling, single point].
As for `O=C(NC(=S)Nc1ccccc1N1CCCC1)c1ccccc1Br`, the AC50 under setting [1] is 0.891 µM [rising, full curve].
The same measure, in the same setting: under `O=C1C=C(N2CCOCC2)c2ccccc2C1=O` stands 6.31 µM [falling, partial curve].
Still for that read-out and setting: under `Cc1ccc(CNc2nc3ccccc3n3nnnc23)cc1` stands 9.2 µM [falling, partial curve]; under `NS(=O)(=O)c1cc(C(=O)Nc2ccc3c(c2)OCCCO3)ccc1Cl`, 3.98 µM [falling, partial curve, poor fit]; under `CN(C)CCOCCOc1ccc(Cl)cc1C(C)(C)C`, 35.5 µM [falling, single point].
On the same count and under the same terms, the figure for `O=C(Nc1ccc2c(c1)OCCO2)C1CCCN1S(=O)(=O)c1cccc2cccnc12` (stereo not drawn) is 8.2 µM [rising, partial curve, poor fit].
Consider `Cc1ccccc1-n1c(=O)cc(N2CCc3ccccc3C2)[nH]c1=O`, for which the AC50 under setting [1] is 6.51 µM [rising, single point].
Still for that read-out and setting: under `CCC1=NN(C(=O)c2cccc(Br)c2)C(O)(c2ccc(Br)cc2)C1` (stereo not drawn) stands 7.31 µM [falling, partial curve]; under `CC(/C=C/c1ccco1)=N\NC(=O)c1cc(Cl)ccc1O`, 1.26 µM [falling, full curve, poor fit].
The same measure, in the same setting: the figure for `O=C(Nc1ccc(Cl)cc1Cl)c1cc2ccccc2o1` is 0.1 µM [rising, full curve, poor fit]; for `COc1cccc(NC(=O)Nc2ccccc2Br)c1` it is 3.16 µM [falling, partial curve, poor fit]; for `Cc1cc(OCC(=O)NCc2nc(-c3ccccc3)no2)c(C)cc1Br` it is 10 µM [rising, partial curve, poor fit].
Same read-out and setting: under `Cc1n[nH]c(=S)n1/N=C/c1ccccc1OCc1ccc(Cl)cc1` stands 2.51 µM [rising, full curve].
`CC1=NCCN1CCNC(=O)Nc1ccc(F)cc1`: the AC50 under setting [1] was 0.112 µM [falling, full curve, poor fit].
Still for that read-out and setting: under `O=C(CN1CCN(Cc2ccccc2)CC1)Nc1cccc(S(=O)(=O)N2CCCCCC2)c1` stands 10 µM [falling, partial curve, poor fit].
Same read-out and setting: under `CCC(=O)NC(Nc1nc2ccc(C)cc2s1)(C(=O)OC)C(F)(F)F` (stereo not drawn) stands 29.1 µM [rising, single point]; under `COC(=O)C1CCN(C(=O)COC(=O)c2cc([N+](=O)[O-])ccc2N2CCOCC2)CC1`, 11.6 µM [rising, partial curve, poor fit].
With `COc1ccc(OC)c(-c2cnc(OC(C)(C)C)nc2OC(C)(C)C)c1`, the AC50 was 18.4 µM [rising, partial curve] under setting [1] and 18.4 µM [falling, partial curve, poor fit] under setting [2].
Take `CCN(CC)c1ccc(NC(=O)c2ccccc2F)cc1`: the AC50 under setting [1] was 20.6 µM [falling, partial curve].
For `c1ccc(N2OCC3Cn4c(nc5ccccc54)C32)cc1` (stereo not drawn), under setting [1], the AC50 is 3.55 µM [falling, partial curve].
The same measure, in the same setting: under `CC1Cc2cccc3c(O)c(C(=O)c4nn[nH]n4)c(=O)n1c23` (stereo not drawn) stands 2.31 µM [rising, full curve, poor fit].
On the same count and under the same terms, under `CCOc1ccc(C)cc1S(=O)(=O)Nc1ccc(Cl)cn1` stands 29.1 µM [falling, single point].
On the same count and under the same terms, under `C=CCNC(=O)c1ccccc1NC(=O)c1cccc2ccccc12` stands 23.1 µM [rising, single point]; under `CCOc1ccc(C(=O)NCC(c2ccco2)N2CCc3ccccc3C2)cc1` (stereo not drawn), 6.51 µM [rising, single point].
Regarding `Cc1ccc2c(c1)=C(c1sc(N(C)c3ccc(O)cc3)nc1O)C(=O)N=2`, the AC50 under setting [1] is 0.891 µM [falling, full curve].
The same measure, in the same setting: under `S=C1SCN(Cc2cccnc2)CN1Cc1ccccc1` stands 35.5 µM [falling, single point]; under `COC(=O)c1cn(NC(=O)c2ccc3c(c2)OCO3)c(=O)c2ccccc12`, 1.46 µM [rising, partial curve, poor fit].
The same measure, in the same setting: the figure for `O=C(/C=C/c1ccc([N+](=O)[O-])cc1)Nc1cccnc1` is 8.91 µM [falling, partial curve].
With `CC(C)CCN1C(=O)c2ccc(C(=O)OCC(=O)N(C)C3CCS(=O)(=O)C3)cc2C1=O` (stereo not drawn), the AC50 under setting [1] is 5.17 µM [falling, partial curve].
On the same count and under the same terms, the figure for `Cc1cc(C)c(C(N)=O)c(SCC(=O)c2cc(C)c(C)cc2C)n1` is 10.3 µM [falling, single point]; for `O=C(/C=C/c1cccs1)NCc1ccccc1` it is 11.2 µM [falling, partial curve, poor fit].
Take `COc1cc2c(cc1OC)-c1cc(Nc3ccccc3C)nc(=O)n1CC2`: the AC50 reads like this: under setting [1], 0.447 µM [rising, full curve, poor fit]; under setting [2], 10 µM [falling, partial curve].
For the compound `COCCn1c(N)c(S(=O)(=O)c2cccs2)c2nc3ccccc3nc21`, under setting [1], the AC50 is 1.46 µM [falling, partial curve, poor fit].
In the case of `CC1CN(C)C(C)CC1NCc1ccc2c(c1)OCO2` (stereo not drawn), the AC50 under setting [1] is 1.12 µM [falling, partial curve, poor fit].
Same read-out and setting: under `O=C(Nc1ccc(F)c(F)c1)c1cc(S(=O)(=O)N2CCc3ccccc32)ccc1F` stands 10 µM [falling, partial curve].
Still for that read-out and setting: under `CCOc1cc(/C=C2\SC(=O)N(c3ccc(O)cc3)C2=O)ccc1O` stands 12.6 µM [falling, partial curve].
On to `CC1=C(C#N)S(=O)(=O)C(C#N)C(c2ccccc2)C1` (stereo not drawn), for which the AC50 under setting [1] is 6.31 µM [rising, single point].
